# Experimental data as given in PubChem BioAssay AID504444 (National Center for Advancing Translational Sciences (NCATS), 2011).
# Among all 360,000 compounds or so, about 7,500 (2.1%) were called active. The shares of active, inactive and inconclusive entries below differ from those in the screen. The call rests on the fitted dose curve; in most records, active means well fitted inhibition curve with a large enough effect; inconclusive means small, poorly fitted or top-dose-only effect, or effect the other way; inactive means flat fitted curve, though single readings scatter. Where the call is inconclusive, the potency comes from a doubtful curve fit.
# Assay: Nrf2 qHTS screen for inhibitors; further: nearly all actives have a fitted effect of over 60% in size
# Conditions: A549 ARE-Fluc reporter, luciferase luminescence, 18-24 h; series mostly up to 46 µM
# Outline: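 Two sequential reads on A549 ARE_Fluc cells exposed to compound for 18-24 h: a CellTiter-Fluor fluorescence read for viability, then a luciferase luminescence read for Nrf2/ARE activity.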
# Potency means the concentration at half of the fitted maximal effect.
row,Structure (SMILES),Potency
1,CCn1c(SCc2ccccc2)nnc1-c1cccs1,"inconclusive: 29.1 µM [falling, single point]"
2,O=C(NN1C(=O)C2C3C=CC(C4CC34)C2C1=O)c1ccc(Cl)cc1Cl (stereo not given),"inconclusive: 7.31 µM [falling, partial curve, poor fit]"
3,COc1ccc(C(C)C)cc1S(=O)(=O)NCCc1c(C)[nH]c2c(Cl)cccc12,"inconclusive: 0.411 µM [activator, full curve, poor fit]"
4,O=C1C(Nc2cccc(O)c2)=C(N2CCCCC2)C(=O)c2ccccc21,"inconclusive: 29.1 µM [falling, single point]"
5,COc1cc2ccccc2cc1C(=O)Nc1ccc(C)cc1,"inconclusive: 18.4 µM [activator, partial curve]"
6,CCC(=O)c1ccc(OCC(O)Cn2nnc3ccccc32)cc1 (stereo not given),"inconclusive: 10.3 µM [activator, partial curve]"
7,C[C@H](NC(=O)OC(C)(C)C)c1nnc(SCc2ccc(Cl)cc2Cl)o1,"inconclusive: 18.4 µM [falling, single point]"
8,Cc1ccc2[nH]c3c(c2c1)CN(C(=O)CN1c2ccc(F)cc2CCC1C)CC3 (stereo not given),"inconclusive: 18.4 µM [falling, partial curve, poor fit]"
9,C/C(=N\NC(=O)CCCOc1ccc(Cl)cc1C)c1ccc(C)o1,"inconclusive: 16.4 µM [falling, partial curve, poor fit]"
10,COc1cccc(/C=N/Nc2nccnc2Cl)c1O,inactive
11,CN(C)S(=O)(=O)N(CC(=O)NCCSCc1ccc(Cl)cc1Cl)c1ccccc1,"inconclusive: 29.1 µM [falling, single point]"
12,CC1CCN(C(=O)C(C)OC(=O)CSc2ccc([N+](=O)[O-])cc2)CC1 (stereo not given),"inconclusive: 14.6 µM [falling, partial curve, poor fit]"
13,CSc1ccc(CCNC(=O)C2CCCN(S(=O)(=O)N(C)c3ccc(F)cc3)C2)cc1 (stereo not given),"inconclusive: 20.6 µM [falling, single point]"
14,O=C(NCc1ccccc1Cl)C1CCCN1S(=O)(=O)c1ccccc1F (stereo not given),inactive
15,Cc1cc(C(=O)Nc2cccc(C(=O)O)c2)oc1C,"inconclusive: 1.3 µM [activator, full curve]"
16,COc1ccc(CCNC(=O)c2cc3c(cc2Cl)N2CCCCCC2=NS3(=O)=O)cc1,inactive
17,COc1ccc(NC(=O)CN2C(=O)C(c3ccccc3)=NC23CCC(C)CC3)cc1Cl (stereo not given),"inconclusive: 29.1 µM [falling, single point]"
18,C/C(=N\NC(=O)c1cc(C)nc2ccccc12)c1ccncc1,inactive
19,O=C(Nc1ccc(Cl)cc1Cl)c1csc(-c2cccnc2)n1,"inconclusive: 2.31 µM [activator, single point]"
20,O=C(C(c1ccccc1)c1ccccc1)N1CCN(c2ccccn2)CC1,"inconclusive: 16.4 µM [falling, partial curve, poor fit]"
21,O=C(c1ccc(N2CCCCC2)c([N+](=O)[O-])c1)N1CCN(c2ccccn2)CC1,"inconclusive: 29.1 µM [falling, single point]"
22,O=C(c1ccccc1)c1ccc(OC(=O)N2CCCC2)cc1,"inconclusive: 0.164 µM [activator, single point]"

row,Structure (SMILES),Potency
1,O=[N+]([O-])/C(C(=C(Cl)Cl)N1CCN(Cc2ccccc2)CC1)=C1\NCCN1Cc1ccc(Cl)nc1,"inconclusive: 7.31 µM [activator, partial curve, poor fit]"
2,COC(=O)C1=C(C)N(Cc2ccccc2)C(=S)N[C@H]1c1cccc(C(F)(F)F)c1,active: 18.4 µM
3,CC(=O)n1nc(-c2ccccc2)nc1NCc1ccc(N(C)C)cc1,"inconclusive: 16.4 µM [activator, single point]"
4,CCN1C(=O)c2ccccc2S(=O)(=O)c2ccc(C(=O)NCc3ccc(C)cc3)cc21,"inconclusive: 29.1 µM [falling, single point]"
5,O=C(Cn1ncc(Cl)c(Cl)c1=O)N1CCN(Cc2ccccc2)CC1,"inconclusive: 32.6 µM [falling, single point]"
6,CCC1CCCCN1S(=O)(=O)c1ccc(C(=O)Nc2nnc(-c3ccccc3Cl)o2)cc1 (stereo not given),active: 5.17 µM
7,COc1ccc(CNC(=O)CCn2c(=O)c3cccn3c3ccc(F)cc32)cc1OC,"inconclusive: 29.1 µM [activator, single point]"
8,CC(C)(C)OC(=O)N/N=C\c1ccc([N+](=O)[O-])s1,inactive
9,CCOC(=O)C1CCN(CC(=O)c2c(C)n(C)c3ccc(OC)cc23)CC1,inactive
10,Cc1nn(CC(=O)N2CCN(c3ccccc3F)CC2)c(=O)c2cccn12,"inconclusive: 25.9 µM [falling, single point]"
11,Cc1oc2c(cc(NS(=O)(=O)c3cccs3)c3ccccc32)c1C(=O)OC(C)C,"inconclusive: 29.1 µM [falling, single point]"
12,C#CCOCCOCCOCCNc1nc(N2CCOCC2)nc(N2CCN(C(=O)[C@H](CCC(=O)O)n3cc(C(N)[C@H](C)CC)nn3)CC2)n1 (stereo not given in full),inactive
13,Cc1nn(C)c(C)c1CN(C)C(=O)c1nn2c(c1Br)NC(c1cccs1)CC2C(F)(F)F (stereo not given),active: 8.2 µM
14,COc1ccccc1C(=O)CSc1ccccn1,"inconclusive: 20.6 µM [activator, partial curve]"
15,COc1ccccc1/C=N/Nc1nncc2ccccc12,"inconclusive: 7.31 µM [activator, partial curve]"
16,COc1ccc(N=C2SC(CC(=O)Nc3ccccc3)C(=O)N2CC2CCCO2)cc1 (stereo not given),"inconclusive: 29.1 µM [falling, single point]"
17,Cn1c(CNc2cccc(C(F)(F)F)c2)n[nH]c1=S,"inconclusive: 0.0046 µM [falling, full curve, poor fit]"
18,CCOc1ccc(/C=N/NC(=O)C(C)Sc2ccccn2)cc1OCC (stereo not given),"inconclusive: 25.9 µM [activator, single point]"
19,O=[N+]([O-])c1c(NCCCO)cc(Sc2nc3ccccc3s2)c2nonc12,"inconclusive: 5.17 µM [falling, partial curve, poor fit]"
20,CCC(C(=O)NCc1ccccc1Cl)n1c(=O)c2cccn2c2ccccc21 (stereo not given),"inconclusive: 29.1 µM [falling, single point]"
21,CN(Cc1ccc(OC(F)F)cc1)C(=O)c1cccc(S(=O)(=O)N2CCN(c3ccccc3)CC2)c1,active: 4.61 µM
22,COc1ccc(CCNS(=O)(=O)c2cccc(C)c2)cc1OC,inactive

row,Structure (SMILES),Potency
1,Cc1ccc2c(c1)N(C(=O)c1ccc(F)cc1)C(C)(C)CC2(C)c1ccccc1 (stereo not given),inactive
2,O=C(NCC(=O)N1CCN(C(=O)c2ccco2)CC1)c1cccc(Cl)c1,"inconclusive: 25.9 µM [falling, partial curve, poor fit]"
3,Cc1ccc(-c2cc(C(=O)NC3CCCCC3)no2)cc1,"inconclusive: 9.2 µM [activator, partial curve]"
4,CC(=O)Nc1ccc(NC(=O)c2cccc(S(=O)(=O)N(C)C3CCCCC3)c2)cc1,"inconclusive: 29.1 µM [falling, single point]"
5,CCOc1ccc2oc(C(=O)N(C)CC(=O)Nc3ccc(OCC)c(OCC)c3)c(C)c2c1,inactive
6,COc1ccc(OC)c2[nH]c(=O)c(CCNS(=O)(=O)c3ccc(C)cc3)cc12,"inconclusive: 10.3 µM [activator, partial curve]"
7,Cn1nc(-c2ccc(F)cc2)nc2c(=O)n(C)c(=O)nc1-2,active: 2.31 µM
8,Cn1c(CSCc2ccccc2Cl)n[nH]c1=S,"inconclusive: 0.461 µM [falling, full curve, poor fit]"
9,Cn1c(=O)c2c(-c3ccccc3)n(-c3cccc(C#N)c3)cc2n(C)c1=O,inactive
10,CC1CC(C)(C)NC(=S)N1CCC(=O)NCc1ccc(F)cc1 (stereo not given),"inconclusive: 29.1 µM [falling, single point]"
11,O=C(O)c1ccc(Nc2ncnc3scc(-c4ccccc4)c23)cc1,"inconclusive: 25.9 µM [falling, partial curve, poor fit]"
12,Cc1ccc(NC(=O)CSc2nccn2Cc2ccco2)c(C)c1,"inconclusive: 0.651 µM [activator, full curve]"
13,CCCCN(C(=O)CSc1c(C)c(C)cc(C)c1C)c1c(N)n(CCC)c(=O)[nH]c1=O,"inconclusive: 18.4 µM [falling, partial curve, poor fit]"
14,Clc1cccc(Cl)c1C1Nc2cccc3cccc(c23)N1,active: 9.2 µM
15,O=C(C1CC1)N1CCN=C1SCc1ccc(Cl)cc1,"inconclusive: 23.1 µM [falling, single point]"
16,CC1CCC2(CC1)NC(=O)N(NC(=O)CCc1c[nH]c3ccccc13)C2=O (stereo not given),"inconclusive: 6.51 µM [activator, partial curve, poor fit]"
17,CCCCOC(=O)C1=C(N)N2C(=O)C(C)SC2=C(C(=O)OCC)C1c1ccc(O)c(OC)c1 (stereo not given),"inconclusive: 29.1 µM [falling, single point]"
18,COc1ccc(Cc2c(C)nn(-c3nc(C)c(C(=O)Nc4cccc(C(C)=O)c4)s3)c2C)cc1,"inconclusive: 5.17 µM [falling, single point]"
19,Cc1ccc(N=C2SC(C(=O)Nc3ccc(OC(F)(F)F)cc3)C(N)=C2C(=O)Nc2c(C)cc(C)cc2C)cc1 (stereo not given),"inconclusive: 23.1 µM [falling, single point]"
20,Cc1oc2c(c(C)cc3oc(=O)c(CC(=O)N[C@@H](CC(C)C)C(=O)O)c(C)c32)c1C,inactive
21,Cc1ccc(C(=O)O)cc1NC(=S)NC(=O)c1ccc([N+](=O)[O-])c(C)c1,inactive

# Looked up by compound from the list above (3):
row,Structure (SMILES),Potency
10,CC1CC(C)(C)NC(=S)N1CCC(=O)NCc1ccc(F)cc1 (stereo not given),"inconclusive: 29.1 µM [falling, single point]"
14,Clc1cccc(Cl)c1C1Nc2cccc3cccc(c23)N1,active: 9.2 µM
6,COc1ccc(OC)c2[nH]c(=O)c(CCNS(=O)(=O)c3ccc(C)cc3)cc12,"inconclusive: 10.3 µM [activator, partial curve]"
